From the supplement of paper PMC12067093, “Discovery and optimisation of a covalent ligand for TRIM25 and its application to targeted protein ubiquitination” (Chemical Science, 2025)
Some of the results follow.

Amino acid sequences for entries named in this document (tags omitted). A change or cut given only in a name is not applied to a line headed by its entry.
UniProt Q92747, whole entry, looked up: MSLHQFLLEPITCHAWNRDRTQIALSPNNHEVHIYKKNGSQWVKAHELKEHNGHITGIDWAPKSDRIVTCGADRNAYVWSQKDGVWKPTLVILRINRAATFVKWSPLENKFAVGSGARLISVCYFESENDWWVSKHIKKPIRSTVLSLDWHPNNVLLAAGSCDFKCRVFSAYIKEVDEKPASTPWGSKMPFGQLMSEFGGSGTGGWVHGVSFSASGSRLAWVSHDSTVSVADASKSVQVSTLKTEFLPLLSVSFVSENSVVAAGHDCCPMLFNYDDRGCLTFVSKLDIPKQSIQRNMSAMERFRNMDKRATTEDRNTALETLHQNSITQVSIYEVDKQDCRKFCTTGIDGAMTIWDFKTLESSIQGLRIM
UniProt Q68CP9, whole entry, looked up: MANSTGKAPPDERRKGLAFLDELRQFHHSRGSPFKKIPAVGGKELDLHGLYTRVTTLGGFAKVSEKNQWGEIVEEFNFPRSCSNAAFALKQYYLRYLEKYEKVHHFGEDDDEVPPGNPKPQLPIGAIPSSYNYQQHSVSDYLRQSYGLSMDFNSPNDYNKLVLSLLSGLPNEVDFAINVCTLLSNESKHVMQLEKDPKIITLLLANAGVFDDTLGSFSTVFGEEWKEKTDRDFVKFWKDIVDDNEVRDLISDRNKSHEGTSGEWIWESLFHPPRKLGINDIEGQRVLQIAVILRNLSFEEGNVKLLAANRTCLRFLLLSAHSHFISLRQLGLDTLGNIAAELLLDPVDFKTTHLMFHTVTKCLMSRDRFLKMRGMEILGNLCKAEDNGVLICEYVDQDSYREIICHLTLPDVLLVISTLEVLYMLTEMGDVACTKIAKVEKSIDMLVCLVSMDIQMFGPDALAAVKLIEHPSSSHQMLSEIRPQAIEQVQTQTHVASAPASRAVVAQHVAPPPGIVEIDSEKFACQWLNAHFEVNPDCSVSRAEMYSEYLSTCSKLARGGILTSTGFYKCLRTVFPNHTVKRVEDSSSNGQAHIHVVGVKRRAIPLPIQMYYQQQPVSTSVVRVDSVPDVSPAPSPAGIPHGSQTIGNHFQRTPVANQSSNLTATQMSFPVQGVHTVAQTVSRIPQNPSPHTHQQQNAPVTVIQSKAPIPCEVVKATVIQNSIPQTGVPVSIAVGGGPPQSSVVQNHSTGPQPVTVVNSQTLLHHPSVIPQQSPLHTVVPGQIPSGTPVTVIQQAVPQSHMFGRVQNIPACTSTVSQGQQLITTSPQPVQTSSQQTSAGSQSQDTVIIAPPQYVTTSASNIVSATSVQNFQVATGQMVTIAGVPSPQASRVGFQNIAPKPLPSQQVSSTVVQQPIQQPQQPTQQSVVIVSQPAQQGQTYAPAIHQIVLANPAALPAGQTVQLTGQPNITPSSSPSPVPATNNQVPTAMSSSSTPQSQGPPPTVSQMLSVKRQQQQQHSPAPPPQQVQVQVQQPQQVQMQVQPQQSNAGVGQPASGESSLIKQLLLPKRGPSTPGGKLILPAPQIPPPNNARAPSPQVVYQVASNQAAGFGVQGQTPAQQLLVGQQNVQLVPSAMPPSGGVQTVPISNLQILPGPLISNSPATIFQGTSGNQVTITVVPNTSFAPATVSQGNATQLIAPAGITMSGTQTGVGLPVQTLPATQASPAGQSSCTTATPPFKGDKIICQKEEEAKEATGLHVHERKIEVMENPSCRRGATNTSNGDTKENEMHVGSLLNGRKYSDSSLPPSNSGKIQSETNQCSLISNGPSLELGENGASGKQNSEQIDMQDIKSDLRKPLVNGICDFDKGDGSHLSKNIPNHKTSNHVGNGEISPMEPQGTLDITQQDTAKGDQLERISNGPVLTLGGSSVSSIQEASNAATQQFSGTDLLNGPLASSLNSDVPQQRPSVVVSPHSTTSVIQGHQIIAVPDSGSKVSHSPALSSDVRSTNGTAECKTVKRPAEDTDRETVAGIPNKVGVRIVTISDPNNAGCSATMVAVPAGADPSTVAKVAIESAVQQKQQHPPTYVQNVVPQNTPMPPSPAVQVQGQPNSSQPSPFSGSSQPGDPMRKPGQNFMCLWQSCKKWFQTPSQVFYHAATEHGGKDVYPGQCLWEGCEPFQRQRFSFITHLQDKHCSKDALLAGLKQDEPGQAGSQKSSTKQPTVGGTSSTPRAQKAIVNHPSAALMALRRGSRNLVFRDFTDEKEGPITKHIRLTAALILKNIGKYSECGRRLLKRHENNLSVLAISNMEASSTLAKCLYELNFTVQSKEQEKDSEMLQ
UniProt Q8WWN8: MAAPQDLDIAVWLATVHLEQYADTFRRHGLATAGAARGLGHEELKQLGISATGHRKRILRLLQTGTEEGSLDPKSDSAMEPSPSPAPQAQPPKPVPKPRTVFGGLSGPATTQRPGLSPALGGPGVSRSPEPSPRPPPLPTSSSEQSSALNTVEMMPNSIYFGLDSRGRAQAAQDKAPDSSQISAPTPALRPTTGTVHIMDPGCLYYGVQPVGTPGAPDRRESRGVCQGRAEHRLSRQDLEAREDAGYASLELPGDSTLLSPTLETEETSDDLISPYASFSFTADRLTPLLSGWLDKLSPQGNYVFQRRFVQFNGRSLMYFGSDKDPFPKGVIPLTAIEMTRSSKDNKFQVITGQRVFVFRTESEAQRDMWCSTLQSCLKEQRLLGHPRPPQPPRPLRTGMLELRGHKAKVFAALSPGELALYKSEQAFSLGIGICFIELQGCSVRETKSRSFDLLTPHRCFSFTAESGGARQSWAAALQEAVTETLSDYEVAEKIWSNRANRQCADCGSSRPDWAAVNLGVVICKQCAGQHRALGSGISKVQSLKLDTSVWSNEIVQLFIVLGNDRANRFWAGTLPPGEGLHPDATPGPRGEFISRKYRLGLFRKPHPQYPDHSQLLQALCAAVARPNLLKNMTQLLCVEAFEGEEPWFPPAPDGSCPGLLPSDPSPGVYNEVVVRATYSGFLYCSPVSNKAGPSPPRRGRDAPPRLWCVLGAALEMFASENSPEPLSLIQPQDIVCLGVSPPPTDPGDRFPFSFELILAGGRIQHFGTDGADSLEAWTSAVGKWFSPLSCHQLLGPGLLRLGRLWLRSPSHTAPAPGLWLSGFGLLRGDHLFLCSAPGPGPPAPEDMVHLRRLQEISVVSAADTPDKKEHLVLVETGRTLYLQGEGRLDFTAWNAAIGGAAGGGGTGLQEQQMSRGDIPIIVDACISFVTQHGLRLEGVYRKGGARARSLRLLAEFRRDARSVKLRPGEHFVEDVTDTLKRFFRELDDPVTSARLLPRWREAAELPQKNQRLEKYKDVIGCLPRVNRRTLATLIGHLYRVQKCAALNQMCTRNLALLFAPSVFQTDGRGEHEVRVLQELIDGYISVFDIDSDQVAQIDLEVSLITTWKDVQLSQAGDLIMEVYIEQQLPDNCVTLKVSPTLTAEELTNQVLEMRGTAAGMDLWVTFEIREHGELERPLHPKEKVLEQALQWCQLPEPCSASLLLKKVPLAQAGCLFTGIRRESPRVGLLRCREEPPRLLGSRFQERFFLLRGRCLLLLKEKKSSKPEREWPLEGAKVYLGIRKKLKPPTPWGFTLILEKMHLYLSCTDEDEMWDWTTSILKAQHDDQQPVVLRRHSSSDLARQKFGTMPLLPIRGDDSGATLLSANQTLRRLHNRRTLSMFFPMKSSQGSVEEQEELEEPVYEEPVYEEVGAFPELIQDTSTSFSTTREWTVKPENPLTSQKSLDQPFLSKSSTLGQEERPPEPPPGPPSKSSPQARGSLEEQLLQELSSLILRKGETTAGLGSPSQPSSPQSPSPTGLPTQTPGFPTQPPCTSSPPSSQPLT
UniProt O95376: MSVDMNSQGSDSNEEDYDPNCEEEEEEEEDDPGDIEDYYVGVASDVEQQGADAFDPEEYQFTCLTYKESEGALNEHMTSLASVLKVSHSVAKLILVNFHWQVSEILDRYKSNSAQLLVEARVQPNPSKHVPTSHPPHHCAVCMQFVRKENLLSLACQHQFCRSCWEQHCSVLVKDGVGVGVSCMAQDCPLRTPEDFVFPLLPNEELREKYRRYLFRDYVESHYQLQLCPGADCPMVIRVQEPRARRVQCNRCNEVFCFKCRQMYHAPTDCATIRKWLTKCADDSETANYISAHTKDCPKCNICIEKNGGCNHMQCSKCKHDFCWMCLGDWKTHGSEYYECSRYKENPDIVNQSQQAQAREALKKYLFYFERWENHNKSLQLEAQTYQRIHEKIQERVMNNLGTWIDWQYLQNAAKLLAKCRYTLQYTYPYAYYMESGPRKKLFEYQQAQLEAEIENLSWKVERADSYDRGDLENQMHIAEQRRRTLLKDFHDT
UniProt P27540, whole entry, looked up: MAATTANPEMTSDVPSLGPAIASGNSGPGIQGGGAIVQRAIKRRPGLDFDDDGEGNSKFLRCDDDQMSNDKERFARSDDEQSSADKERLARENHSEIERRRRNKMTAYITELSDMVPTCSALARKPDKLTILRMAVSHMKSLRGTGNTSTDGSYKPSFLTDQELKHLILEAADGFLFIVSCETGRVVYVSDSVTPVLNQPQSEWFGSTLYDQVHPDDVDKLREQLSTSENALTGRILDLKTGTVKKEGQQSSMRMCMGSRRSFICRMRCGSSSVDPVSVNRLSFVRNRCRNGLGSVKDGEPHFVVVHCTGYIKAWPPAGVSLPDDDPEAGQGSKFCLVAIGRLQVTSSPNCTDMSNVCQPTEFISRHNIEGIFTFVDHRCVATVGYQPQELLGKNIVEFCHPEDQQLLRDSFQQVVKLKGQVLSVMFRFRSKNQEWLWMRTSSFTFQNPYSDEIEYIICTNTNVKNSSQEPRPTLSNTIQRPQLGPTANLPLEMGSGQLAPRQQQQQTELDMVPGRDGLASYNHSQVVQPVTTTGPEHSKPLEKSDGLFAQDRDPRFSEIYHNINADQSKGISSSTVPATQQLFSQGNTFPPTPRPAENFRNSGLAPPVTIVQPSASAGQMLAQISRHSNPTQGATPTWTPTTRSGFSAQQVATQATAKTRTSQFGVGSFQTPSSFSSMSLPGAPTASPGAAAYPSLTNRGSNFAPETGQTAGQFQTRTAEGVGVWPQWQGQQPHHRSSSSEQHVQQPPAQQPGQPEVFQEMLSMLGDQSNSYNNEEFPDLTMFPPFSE
UniProt Q96P48: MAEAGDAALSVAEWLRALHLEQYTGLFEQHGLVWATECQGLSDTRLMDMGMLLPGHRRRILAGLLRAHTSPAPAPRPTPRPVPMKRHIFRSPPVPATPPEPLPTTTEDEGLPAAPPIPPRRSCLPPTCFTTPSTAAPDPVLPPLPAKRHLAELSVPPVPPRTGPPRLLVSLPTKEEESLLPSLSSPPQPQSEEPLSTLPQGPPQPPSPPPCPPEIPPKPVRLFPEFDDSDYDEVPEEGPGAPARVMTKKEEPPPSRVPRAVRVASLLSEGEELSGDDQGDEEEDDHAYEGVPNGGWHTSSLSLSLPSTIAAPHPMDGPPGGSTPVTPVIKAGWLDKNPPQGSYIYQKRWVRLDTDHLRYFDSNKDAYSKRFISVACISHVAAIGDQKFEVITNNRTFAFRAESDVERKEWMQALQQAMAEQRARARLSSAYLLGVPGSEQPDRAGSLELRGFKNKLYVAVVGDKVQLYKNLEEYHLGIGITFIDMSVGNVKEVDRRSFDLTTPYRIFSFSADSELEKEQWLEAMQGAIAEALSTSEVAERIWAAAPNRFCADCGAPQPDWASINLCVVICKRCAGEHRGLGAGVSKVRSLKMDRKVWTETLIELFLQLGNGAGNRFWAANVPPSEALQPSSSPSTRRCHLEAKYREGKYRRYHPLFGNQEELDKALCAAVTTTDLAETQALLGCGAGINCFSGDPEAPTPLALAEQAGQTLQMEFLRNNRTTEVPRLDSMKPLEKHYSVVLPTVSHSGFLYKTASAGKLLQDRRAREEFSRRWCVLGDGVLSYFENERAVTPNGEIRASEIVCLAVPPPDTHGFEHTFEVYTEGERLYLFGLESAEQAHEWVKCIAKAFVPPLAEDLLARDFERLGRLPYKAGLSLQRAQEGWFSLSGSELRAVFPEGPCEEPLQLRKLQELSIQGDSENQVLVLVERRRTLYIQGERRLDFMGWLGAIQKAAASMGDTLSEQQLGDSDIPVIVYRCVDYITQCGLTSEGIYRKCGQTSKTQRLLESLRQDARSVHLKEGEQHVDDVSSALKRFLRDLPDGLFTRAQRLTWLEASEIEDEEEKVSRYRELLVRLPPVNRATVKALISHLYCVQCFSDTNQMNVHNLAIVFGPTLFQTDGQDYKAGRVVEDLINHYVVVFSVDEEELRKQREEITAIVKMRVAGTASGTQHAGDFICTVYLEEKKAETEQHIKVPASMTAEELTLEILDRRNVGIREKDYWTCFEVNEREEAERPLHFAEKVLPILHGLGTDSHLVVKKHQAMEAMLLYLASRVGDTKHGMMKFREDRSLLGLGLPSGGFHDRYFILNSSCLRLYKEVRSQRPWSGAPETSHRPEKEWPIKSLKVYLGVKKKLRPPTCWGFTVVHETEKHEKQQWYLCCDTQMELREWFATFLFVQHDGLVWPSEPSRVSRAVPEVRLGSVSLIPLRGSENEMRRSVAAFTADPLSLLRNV

Compound: Cc1cc(ccc1-c1ccccc1)C(=O)N1CCCN(CC1)C(=O)CCl [compound 10]
Assay: probe-labelled cysteine peptide fold change vs DMSO (competition) (log2 fold change); higher = less target engagement (more negative = stronger competition)
Conditions: THP-1, incubation time: 4 h
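Note: competitive profiling in live THP-1 cells: cysteine peptides tagged with an iodoacetamide desthiobiotin (IA-DTB) probe, intensity after compound treatment relative to DMSO-treated cells.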

Target | probe-labelled cysteine peptide fold change (10 µM) | probe-labelled cysteine peptide fold change (50 µM)
ARHGEF18_Q6ZSZ5_105_RLSLDASAVDEEPCLPR (UniProt Q6ZSZ5) | 0.0861 | 0.0274
ARF4_P18085_62_NICFTVWDVGGQDR (UniProt P18085) | 0.183 | 0.358
ARIH1_Q9Y4X5_357_DGGCNHMVCR (UniProt Q9Y4X5) | -0.0325 | -0.243
ARPC1A_Q92747_13_SLHQFLLEPITCHAWNR (UniProt Q92747) | 0.253 | 0.579
ARHGEF6_Q15052_66_FCLDPQTEADCINNINDFLK (UniProt Q15052) | 0.158 | 0.0931
ARID2_Q68CP9_538_FACQWLNAHFEVNPDCSVSR (UniProt Q68CP9) | 0.105 | 0.325
ARMC6_Q6NXE6_297_AFLDNPGILSELCGTLSR (UniProt Q6NXE6) | 0.144 | -0.237
ARFGEF1_Q9Y6D6_1729_QETSSLACGLR (UniProt Q9Y6D6) | -0.151 | 0.114
ARHGAP4_P98171_855_CLVPASPEQHVEVDK (UniProt P98171) | -0.453 | -0.365
ARAP3_Q8WWN8_1215_KVPLAQAGCLFTGIR (UniProt Q8WWN8) | -0.078 | -0.664
ARAP3_Q8WWN8_1199_VLEQALQWCQLPEPCSASLLLK (UniProt Q8WWN8) | -0.148 | -0.683
ARIH2_O95376_340_THGSEYYECSR (UniProt O95376) | -0.0814 | -0.191
ARHGAP4_P98171_102_EPSLLSPLHCWAVLLQHTR (UniProt P98171) | 0.0464 | 0.0559
APOOL_Q6UXV4_74_TATGCYIGWCK (UniProt Q6UXV4) | -0.823 | -1.75
ARNT_P27540_119_MTAYITELSDMVPTCSALAR (UniProt P27540) | -0.0639 | 0.32
ARAP1_Q96P48_774_RWCVLGDGVLSYFENER (UniProt Q96P48) | -0.00746 | 0.00922
APPL1_Q9UKG1_341_YCFQITSFDGK (UniProt Q9UKG1) | 0.0889 | 0.137
ARHGAP35_Q9NRY4_924_FTSIPCSQPQHK (UniProt Q9NRY4) | -0.0744 | 0.0121
ARNT_P27540_400_NIVEFCHPEDQQLLR (UniProt P27540) | 0.142 | -0.0294

Random excerpt: 2 records from the list
Target | probe-labelled cysteine peptide fold change (10 µM) | probe-labelled cysteine peptide fold change (50 µM)
ARIH1_Q9Y4X5_357_DGGCNHMVCR (UniProt Q9Y4X5) | -0.0325 | -0.243
ARPC1A_Q92747_13_SLHQFLLEPITCHAWNR (UniProt Q92747) | 0.253 | 0.579

Next part.

Target | probe-labelled cysteine peptide fold change (10 µM) | probe-labelled cysteine peptide fold change (50 µM)
ARHGEF40_Q8TER5_636_LLILIHDDLPTELCGFQGAEVLSENDLKR (UniProt Q8TER5) | -0.15 | -0.378
ARHGEF7_Q14155_349_VGGCFLNLMPQMK (UniProt Q14155) | 0.449 | 0.294
ARL2BP_Q9Y2Y0_149_GLDLSSGLVVTSLCK (UniProt Q9Y2Y0) | -0.0761 | -0.0301
APRT_P07741_83_GFLFGPSLAQELGLGCVLIRK (UniProt P07741) | -0.0219 | -0.44
ARRB1_P49407_140_ACGVDYEVK (UniProt P49407) | -0.366 | -0.101
ARHGEF2_Q92974_573_TCPSREDFPLIETEDEAYLRR (UniProt Q92974) | -0.0481 | 0.0748
ARIH2_O95376_326_HDFCWMCLGDWK (UniProt O95376) | 0.163 | 0.119
ARHGAP4_P98171_840_QVVGAGLQTAGESGSSPEGLLASELVHRPEPCTSPEAMGPSGHR (UniProt P98171) | -0.252 | -0.535
ARAP1_Q96P48_376_FISVACISHVAAIGDQKFEVITNNR (UniProt Q96P48) | 0.28 | -0.397
ARIH2_O95376_233_DYVESHYQLQLCPGADCPMVIR (UniProt O95376) | 0.202 | 0.24
ARAP1_Q96P48_1357_LRPPTCWGFTVVHETEK (UniProt Q96P48) | 0.00392 | 0.175
ARHGAP4_P98171_102_KEPSLLSPLHCWAVLLQHTR (UniProt P98171) | 0.073 | -0.0475
ARID2_Q68CP9_1814_CLYELNFTVQSK (UniProt Q68CP9) | 0.171 | 0.0348
ARFRP1_Q13795_19_DEYCILILGLDNAGK (UniProt Q13795) | 0.0244 | 0.17
ARID1B_Q8NFD5_1141_QYIQYLFAFECK (UniProt Q8NFD5) | 0.186 | 0.236
ARHGAP4_P98171_569_VSEIRDAFERGEDPLVEGCTAHDLDSVAGVLK (UniProt P98171) | -0.105 | -0.434
ARHGEF6_Q15052_763_QTDECIR (UniProt Q15052) | -0.0781 | -0.172
ARHGEF40_Q8TER5_1262_GCEIDLK (UniProt Q8TER5) | -0.15 | -0.0894
